# The supplement of paper PMC3682954
# Counter-ions that a name gives are not always drawn. ± gives the standard deviation of the averaged measurements. The list shows a part of the results. Many values rest on one well or one pass, so single values are uncertain.
# Tested on: RAW 264.7
# Experiment: HMGB1-induced TNF-alpha production relative to HMGB1-stimulated control; higher = more TNF-alpha secretion (less inhibition)
# Settings: stimulus: HMGB1 5 ug/ml, 18 h
# [1] = compound concentration: 1 ug/ml
Structure (SMILES),HMGB1-induced TNF-alpha production (compound concentration: 3 uM),HMGB1-induced TNF-alpha production [1]
COc1ccccc1O [Guaiacol],91.5 ± 17%,
CC1CNCCN1S(=O)(=O)c1cccc2cnccc12 (stereo unspecified),71.8%,
CCCCC(C)(O)C/C=C/[C@H]1[C@H](O)CC(=O)[C@@H]1CCCCCCC(=O)OC (mixture of isomers) [Misoprostol],94.8 ± 25%,
CNCCC(Oc1ccccc1OC)c1ccccc1 (stereo unspecified) [Nisoxetine hydrochloride],104 ± 4.9%,
CNCCC(Oc1ccccc1OC)c1ccccc1 (stereo unspecified) [Nisoxetine],106%,
O=NN(CCCl)C(=O)NC1CCCCC1 [Lomustine],76.6%,
Cn1c(=O)ccn([C@@H]2O[C@H](CO)[C@@H](O)[C@H]2O)c1=O [3-Methyluridine],,70.9%
CCOC(=O)C1=C[C@]2(CC)CCCN3CCc4c(n1c1ccccc41)[C@@H]32 [Vinpocetine],83.2 ± 23%,
CC1CN(S(=O)(=O)c2cccc3cnccc23)CCN1 (stereo unspecified),107%,
COc1ccc(-c2cc(=O)c3c(O)cc(O[C@@H]4O[C@H](CO[C@@H]5O[C@@H](C)[C@H](O)[C@@H](O)[C@H]5O)[C@@H](O)[C@H](O)[C@H]4O)cc3o2)cc1O,80.4%,
O=c1c2cc(O)c(O)cc2oc2cc(O)c([C@@H]3O[C@H](CO)[C@@H](O)[C@H](O)[C@H]3O)c(O)c12 [Mangiferin],,78.9%
C=C1C[C@]23C[C@@]1(O)CC[C@H]2[C@@]12C=C[C@H](O)[C@@](C)(C(=O)O1)[C@H]2[C@@H]3C(=O)O [Gibberellic Acid],,48.5%
c1ccc2[nH]c(-c3cscn3)nc2c1 [Tiabendazole],57.7%,
c1ccc2[nH]c(-c3cscn3)nc2c1,89.7%,
OC[C@@H](O)[C@@H](O[C@@H]1O[C@H](CO)[C@H](O)[C@H](O)[C@H]1O)[C@H](O)[C@@H](O)CO,81.3%,
CN1[C@@H](CC(=O)c2ccccc2)CCC[C@H]1C[C@H](O)c1ccccc1 [Lobeline hydrochloride],,63%
CN1[C@@H](CC(=O)c2ccccc2)CCC[C@H]1C[C@H](O)c1ccccc1 [alpha-Lobeline hydrochloride],104%,
CN1[C@@H](CC(=O)c2ccccc2)CCC[C@H]1C[C@H](O)c1ccccc1 [Lobeline],98%,
CN1[C@@H](CC(=O)c2ccccc2)CCC[C@H]1C[C@H](O)c1ccccc1,94.1 ± 23%,
CN1[C@@H](CC(=O)c2ccccc2)CCC[C@H]1C[C@H](O)c1ccccc1 [Lobeline alpha (-) hydrochoride],109%,
CSc1nc(N)c2ncn([C@@H]3O[C@H](COP(=O)(O)OP(=O)(O)OP(=O)(O)O)[C@H](O)C3O)c2n1 (stereo partly specified) [2-Methylthioadenosine triphosphate tetrasodium],92.2%,
"CC(=O)C(C)=O [2,3-Butanedione]",76%,

# A few values from above.
# Entry for CCOC(=O)C1=C[C@]2(CC)CCCN3CCc4c(n1c1ccccc41)[C@@H]32 [Vinpocetine] under HMGB1-induced TNF-alpha production (compound concentration: 3 uM): 83.2 ± 23%
# Entry for CCCCC(C)(O)C/C=C/[C@H]1[C@H](O)CC(=O)[C@@H]1CCCCCCC(=O)OC (mixture of isomers) [Misoprostol] under HMGB1-induced TNF-alpha production (compound concentration: 3 uM): 94.8 ± 25%
# Entry for CN1[C@@H](CC(=O)c2ccccc2)CCC[C@H]1C[C@H](O)c1ccccc1 [Lobeline] under HMGB1-induced TNF-alpha production (compound concentration: 3 uM): 98%

# (next part)

Structure (SMILES),HMGB1-induced TNF-alpha production (compound concentration: 3 uM),HMGB1-induced TNF-alpha production [1]
COc1cc(C(O)C(=O)O)ccc1O (racemic) [(±)-Vanillylmandelic acid],88.9%,
CC1CS(=O)(=O)CCN1/N=C/c1ccc([N+](=O)[O-])o1 (stereo unspecified) [Nifurtimox],99.9%,
NC(=O)NC(=O)Cc1ccccc1,99%,
O=C(O)Cc1sc(-c2ccccc2)nc1-c1ccc(Cl)cc1 [Fentiazac],85.6 ± 1.4%,
OCc1cc(C(O)CNCCCCCCOCCCCc2ccccc2)ccc1O (stereo unspecified) [Salmeterol],51.4 ± 11%,
OCc1cc(C(O)CNCCCCCCOCCCCc2ccccc2)ccc1O (stereo unspecified) [Salmeterol xinafoate],50.5%,
C#CCN1C(C)=C(C(=O)OC)C(c2cccc([N+](=O)[O-])c2)C(C(=O)OCC)=C1C (stereo unspecified),100%,
N=C(N)NCCC[C@H](N)C(=O)O [L-Arginine],120%,
CNCCC(Oc1ccc(C(F)(F)F)cc1)c1ccccc1 (stereo unspecified),83.3%,
CNCCC(Oc1ccc(C(F)(F)F)cc1)c1ccccc1 (stereo unspecified) [Fluoxetine hydrochloride],76.7 ± 26%,
CNCCC(Oc1ccc(C(F)(F)F)cc1)c1ccccc1 (stereo unspecified) [Fluoxetine],71.5%,
Cc1nc2n(c(=O)c1CCN1CCC(c3noc4cc(F)ccc34)CC1)CCCC2 [Risperidone],110 ± 26%,
Cc1nc2n(c(=O)c1CCN1CCC(c3noc4cc(F)ccc34)CC1)CCCC2,96.3%,
"O=c1oc2ccccc2c(-c2ccccc2)c1-c1ccc(Cl)cc1Cl [3(2',4'-Dichlorophenyl)-4-phenylcoumarin]",,69.6%
CC(=O)Nc1ccc(CC(=O)O)cc1,107%,
COc1cc2cc3c4c(cc(OC)c(OC)c4c2cc1OC)CCN3C [Dehydroglaucine],,46.2%
Nc1ncnc2c1ncn2[C@@H]1O[C@H](COP(=O)(O)OP(=O)(O)OP(=O)(O)O)[C@@H](O)[C@H]1O,,66.6%
CCN1CC(CCN2CCOCC2)C(c2ccccc2)(c2ccccc2)C1=O (stereo unspecified),103%,
N[C@@H](C(=O)N[C@@H]1C(=O)N2C(C(=O)O)=C(CSc3cn[nH]n3)CS[C@H]12)c1ccc(O)cc1,113%,
COc1ccc(-c2cc(=O)c3ccc(O)cc3o2)cc1,,82.2%
CCCCNC(=O)NS(=O)(=O)c1ccc(C)cc1,90.4%,
CCCCNC(=O)NS(=O)(=O)c1ccc(C)cc1 [Tolbutamide],94.8 ± 8.5%,

Structure (SMILES),HMGB1-induced TNF-alpha production (compound concentration: 3 uM),HMGB1-induced TNF-alpha production [1]
COc1ccc(-c2oc3ccccc3c(=O)c2O)cc1OC,,80.4%
O=C(O)c1cc(-c2ccc(F)cc2F)ccc1O,78.7%,
O=C(O)c1cc(-c2ccc(F)cc2F)ccc1O [Diflunisal],77.7 ± 21%,
CC(=O)[C@H]1CC[C@H]2[C@@H]3C[C@H](C)C4=CC(=O)CC[C@]4(C)[C@H]3[C@@H](O)C[C@]12C,68.5%,
CC(=O)[C@H]1CC[C@H]2[C@@H]3C[C@H](C)C4=CC(=O)CC[C@]4(C)[C@H]3[C@@H](O)C[C@]12C [Medrysone],62.7%,
CCOC(=O)OC(C)OC1=C(C(=O)Nc2ccccn2)N(C)S(=O)(=O)c2ccccc21 (stereo unspecified),90.2%,
CCOC(=O)OC(C)OC1=C(C(=O)Nc2ccccn2)N(C)S(=O)(=O)c2ccccc21 (stereo unspecified) [Ampiroxicam],100%,
CCOc1ccccc1OCCN[C@H](C)Cc1ccc(OC)c(S(N)(=O)=O)c1 [Tamsulosin],102%,
"CCCCCCCCCCC/C=C\C(C)(C)/C=C\CCCC(=O)O [7,7-Dimethyl-(5Z,8Z)-eicosadienoic acid]",91.7%,
CCCCCCCCCCCCC[N+](C)(C)Cc1ccccc1,59.2 ± 22%,
O=S(=O)(O)CCS,91.6%,
O=S(=O)(O)CCS [Mesna],104%,
CCn1cc(C(=O)O)c(=O)c2cnc(N3CCCC3)nc21 [Piromidic acid],127%,
CCn1cc(C(=O)O)c(=O)c2cnc(N3CCCC3)nc21,85.9%,
Cc1cc2c(cc1Cl)N(C(=O)Nc1cccc3ncccc13)CC2,101%,
CC(C)Nc1ncccn1,79%,
CC(C)(C)NC[C@H](O)c1ccc(O)c(CO)c1,107%,
Nc1nc(=O)c2c([nH]1)NC[C@@H](CNc1ccc(C(=O)N[C@@H](CCC(=O)O)C(=O)O)cc1)N2C=O [Folinic acid calcium salt],91.3%,
COc1ccc2cc([C@@H](C)C(=O)O)ccc2c1 [(R) -Naproxen sodium salt],101%,
CC(C)NCC(O)COc1cccc2ccccc12 (stereo unspecified) [Propranolol],103%,
CCN1CCCC1CN=Cc1c(O)c(O)c(C(C)C)c2cc(C)c(-c3c(C)cc4c(C(C)C)c(O)c(O)c(C=NCC5CCCN5CC)c4c3O)c(O)c12 (stereo unspecified),,82.2%
CC(C)C[C@H](NC(=O)[C@H]1O[C@@H]1C(=O)O)C(=O)NCCCCN=C(N)N,106%,

Structure (SMILES),HMGB1-induced TNF-alpha production (compound concentration: 3 uM),HMGB1-induced TNF-alpha production [1]
CC1(C)NC(=O)N(c2ccc([N+](=O)[O-])c(C(F)(F)F)c2)C1=O [Nilutamide],109 ± 10%,
CC1(C)NC(=O)N(c2ccc([N+](=O)[O-])c(C(F)(F)F)c2)C1=O,75.8%,
CCCCCCc1ccc(O)cc1O,94.2%,
CCCCC(CC)CNC(=N)NC(=N)NCCCCCCNC(=N)NC(=N)NCC(CC)CCCC (stereo unspecified) [Alexidine dihydrochloride],46.8%,
COC(=O)[C@@H]1[C@H]2C[C@H]3c4[nH]c5ccccc5c4CCN3C[C@@H]2CC[C@@H]1O [Yohimbine hydrochloride],99.6 ± 7.2%,
COC(=O)[C@@H]1[C@H]2C[C@H]3c4[nH]c5ccccc5c4CCN3C[C@@H]2CC[C@@H]1O,82.5%,
COC(=O)[C@@H]1[C@H]2C[C@H]3c4[nH]c5ccccc5c4CCN3C[C@@H]2CC[C@@H]1O [Yohimbine HCl],88.7%,
C=C(C)[C@@H]1CC=C(C(=O)O)CC1 [(S)-(-)-Perillic acid],,87.1%
C=C(C)[C@@H]1CC=C(C(=O)O)CC1 [(-)-Perillic acid],109%,
C=C(C)[C@@H]1CC=C(C(=O)O)CC1,90.5%,
Oc1c2ccccc2c2c3c(cccc13)N=N2,99.9%,
O=C1CCc2cc(OCCCCc3nnnn3C3CCCCC3)ccc2N1 [Cilostazol],97.7 ± 22%,
O=C1CCc2cc(OCCCCc3nnnn3C3CCCCC3)ccc2N1,105%,
CCS(=O)(=O)CCn1c([N+](=O)[O-])cnc1C [Tinidazole],103 ± 16%,
CCS(=O)(=O)CCn1c([N+](=O)[O-])cnc1C,92.7 ± 11%,
"COc1cc(OC)c2c(c1)OC(c1ccccc1)CC2=O (stereo unspecified) [5,7-Dimethoxyflavanone]",,67.9%
CCCCOc1cc(C(=O)NCCN(CC)CC)c2ccccc2n1 [Dibucaine],89.5%,
CCCCOc1cc(C(=O)NCCN(CC)CC)c2ccccc2n1,76.6%,
"O=C(O)[C@H]1C[C@H](C(=O)O)N1 (relative stereo) [trans-Azetidine-2,4-dicarboxylic acid]",91.9%,
CC[C@H]1OC(=O)[C@H](C)C(=O)[C@H](C)[C@@H](O[C@@H]2O[C@H](C)C[C@H](N(C)C)[C@H]2O)[C@](C)(OC)C[C@@H](C)C(=O)[C@H](C)[C@H]2N(CCCCn3cnc(-c4cccnc4)c3)C(=O)O[C@]12C,98.4 ± 3.9%,
